The target in the test is AHL22 N-terminal GS^rhino tag fusion (Arabidopsis thaliana) (UniProt O22130). The test can be described thus: affinity purification with mass spectrometry.

Chains of the proteins cited; added tags and fusions are not shown.
UniProt O22130: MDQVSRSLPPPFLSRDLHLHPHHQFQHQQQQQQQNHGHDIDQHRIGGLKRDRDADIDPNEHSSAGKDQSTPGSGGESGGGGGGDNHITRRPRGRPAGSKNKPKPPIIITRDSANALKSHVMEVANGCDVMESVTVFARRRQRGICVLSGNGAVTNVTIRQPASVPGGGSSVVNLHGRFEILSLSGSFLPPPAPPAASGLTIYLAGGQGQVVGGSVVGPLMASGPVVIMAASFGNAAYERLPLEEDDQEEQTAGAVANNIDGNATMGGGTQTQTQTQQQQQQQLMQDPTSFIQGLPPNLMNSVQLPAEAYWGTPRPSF
UniProt Q9S7C9: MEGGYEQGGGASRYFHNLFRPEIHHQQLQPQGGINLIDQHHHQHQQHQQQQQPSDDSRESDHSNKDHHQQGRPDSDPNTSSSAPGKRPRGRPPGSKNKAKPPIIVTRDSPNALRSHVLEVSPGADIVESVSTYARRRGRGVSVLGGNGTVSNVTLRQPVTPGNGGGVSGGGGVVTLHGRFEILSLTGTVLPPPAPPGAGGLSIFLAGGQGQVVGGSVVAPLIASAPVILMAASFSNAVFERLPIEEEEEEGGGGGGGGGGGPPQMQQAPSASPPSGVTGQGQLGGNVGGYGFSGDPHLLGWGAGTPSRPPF
UniProt Q9C9K7: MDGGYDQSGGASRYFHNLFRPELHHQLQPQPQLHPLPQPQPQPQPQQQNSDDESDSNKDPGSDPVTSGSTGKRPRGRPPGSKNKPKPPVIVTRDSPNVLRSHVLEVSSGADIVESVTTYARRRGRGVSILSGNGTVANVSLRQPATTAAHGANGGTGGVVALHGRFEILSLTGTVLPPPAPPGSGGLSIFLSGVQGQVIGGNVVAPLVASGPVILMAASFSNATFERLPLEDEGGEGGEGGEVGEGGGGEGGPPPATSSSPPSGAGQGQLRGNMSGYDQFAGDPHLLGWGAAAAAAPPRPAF

No constants are given. Whether binding was seen depends on the method and setting. Binding seen in cells or lysates may run through a third protein. Here binding means that the protein was enriched with, or labelled near, the bait; the list need not be complete.

For 3 molecules, binding results are on record in publication doi:10.1101/2023.07.05.547753.

Consider AHL27 (from UniProt Q9S7C9 1-311), for which the binding entry was “binds”.

On to AHL29 (from UniProt Q9C9K7 1-302), for which the binding entry is “binds”.

B1: FRS12 (FAR1-RELATED SEQUENCE 12), endogenous (protein, UniProt Q3E7I5 1-788)
chain: MESVDTELTSFNNMVAKSSYPVRILHHNNGISEDEEGGSGVEPYVGLEFDTAEEAREFYNAYAARTGFKVRTGQLYRSRTDGTVSSRRFVCSKEGFQLNSRTGCTAFIRVQRRDTGKWVLDQIQKEHNHELGGEGSVEETTPRPSRAPAPTKLGVTVNPHRPKMKVVDESDRETRSCPGGFKRFKGGGGEGEVSDDHHQTQQAKAVTGTEPYAGLEFGSANEACQFYQAYAEVVGFRVRIGQLFRSKVDGSITSRRFVCSREGFQHPSRMGCGAYMRIKRQDSGGWIVDRLNKDHNHDLEPGKKNDAGMKKIPDDGTGGLDSVDLIELNDFGNNHIKKTRENRIGKEWYPLLLDYFQSRQTEDMGFFYAVELDVNNGSCMSIFWADSRARFACSQFGDSVVFDTSYRKGSYSVPFATIIGFNHHRQPVLLGCAMVADESKEAFLWLFQTWLRAMSGRRPRSIVADQDLPIQQALVQVFPGAHHRYSAWQIREKERENLIPFPSEFKYEYEKCIYQTQTIVEFDSVWSALINKYGLRDDVWLREIYEQRENWVPAYLRASFFAGIPINGTIEPFFGASLDALTPLREFISRYEQALEQRREEERKEDFNSYNLQPFLQTKEPVEEQCRRLYTLTVFRIFQNELVQSYNYLCLKTYEEGAISRFLVRKCGNESEKHAVTFSASNLNSSCSCQMFEHEGLLCRHILKVFNLLDIRELPSRYILHRWTKNAEFGFVRDMESGVSAQDLKALMVWSLREAASKYIEFGTSSLEKYKLAYEIMREGGKKLCWQR
For B1, the binding entry is “binds”.
